Source: patent US20060189539A1 (priority 1994, published 2006)

Assay: general procedure: Boc solid-phase peptide synthesis; BHA resin; DIC/HOBt (carbodiimide); BOP reagent for bulky amino acids; symmetric anhydride
Conditions: whole synthesis; for crude purity (method not given): scale of the general procedure 0.5 mmol

Substance	isolated mass (scale 0.5 mmol)	crude purity (method not given)
Lys^5,D-Trp^6-hGnRH	52 mg	–
Lys^5[Lys(ε-Fmoc)]^8-GnRH-III	–	about 80%
Lys^4[Lys(ε-Fmoc)]^8-GnRH-III	–	80%
